Values of other authors as cited in patent US11306056B2 (Cardioxyl Pharmaceuticals, Inc., priority 2006, dated 2022).

Conditions: cited from earlier work; for donor type under physiological conditions: PA via an oxidative pathway (Zamora et al. 1995)

| Compound | donor type at high pH (high pH (>9), Bonner and Ko 1992) | donation of significant amounts of nitroxyl (physiological conditions (Zamora)) | donor type under physiological conditions |
| --- | --- | --- | --- |
| O=S(=O)(NO)c1ccccc1 [PA, N-hydroxybenzenesulfonamide] | nitroxyl donor | does not in fact donate significant amounts of nitroxyl | nitric oxide donor |
| [Na+].[Na+].[O-][N+]([O-])=NO [AS, sodium dioxotrinitrate] |  |  | nitroxyl donor |
